Measurements published in paper PMC4678859.
No constants are given. Whether binding was seen depends on the method and setting. For some of these results: Binding seen in cells or lysates may run through a third protein. Some results given as binding are weak or reduced against the parent protein; the word gives no strength. For some of these results: Sequences can lack the tags named with a protein.

Sequences of proteins named here, by UniProt entry; tags and fusion partners are left off.
UniProt Q9UKV8: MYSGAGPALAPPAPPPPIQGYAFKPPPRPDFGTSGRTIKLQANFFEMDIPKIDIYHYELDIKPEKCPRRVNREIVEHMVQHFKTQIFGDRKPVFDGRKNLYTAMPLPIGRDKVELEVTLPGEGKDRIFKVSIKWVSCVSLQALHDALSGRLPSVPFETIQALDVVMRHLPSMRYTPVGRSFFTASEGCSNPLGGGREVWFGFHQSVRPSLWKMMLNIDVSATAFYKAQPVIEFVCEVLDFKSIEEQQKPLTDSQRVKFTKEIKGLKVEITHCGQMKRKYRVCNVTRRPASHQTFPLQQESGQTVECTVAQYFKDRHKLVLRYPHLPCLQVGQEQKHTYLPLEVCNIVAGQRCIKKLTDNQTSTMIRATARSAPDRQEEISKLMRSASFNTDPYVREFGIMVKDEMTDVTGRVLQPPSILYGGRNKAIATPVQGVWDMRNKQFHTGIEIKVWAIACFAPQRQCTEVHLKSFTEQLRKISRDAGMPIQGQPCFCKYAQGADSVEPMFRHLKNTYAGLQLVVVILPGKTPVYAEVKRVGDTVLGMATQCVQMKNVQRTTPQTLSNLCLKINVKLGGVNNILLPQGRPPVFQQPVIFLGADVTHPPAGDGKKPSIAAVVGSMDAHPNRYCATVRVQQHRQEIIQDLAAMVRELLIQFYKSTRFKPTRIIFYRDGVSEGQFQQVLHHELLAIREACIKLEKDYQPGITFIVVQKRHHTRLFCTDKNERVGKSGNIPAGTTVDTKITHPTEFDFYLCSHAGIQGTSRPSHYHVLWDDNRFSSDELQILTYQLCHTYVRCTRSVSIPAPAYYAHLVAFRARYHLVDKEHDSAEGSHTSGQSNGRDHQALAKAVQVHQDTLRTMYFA

Columns and labels:
[1] = molecular target: Argonaute-2 (Ago-2), endogenous in nuclear extracts of HCT116 cells (human (endogenous in HCT116)) (UniProt Q9UKV8); assay: co-IP; 100 ug total protein of nuclear extracts from HCT116 cells, non-stress or after UV treatment, samples treated with RNase A; IPed with anti-PARN or anti-Ago-2; pellets and supernatants immunoblotted for PARN and Ago-2
[2] = molecular target: GST-Ago-2 (full-length recombinant Ago-2) (UniProt Q9UKV8); assay: pull-down; His-PARN immobilised on nickel beads incubated with GST-Ago-2; and GST-Ago-2 immobilised on glutathione beads incubated with His-PARN, His-NTD-PARN or His-CTD-PARN; no miRNA added; bound proteins detected by immunoblotting; both purified

Row | Binder | binding [1] | binding [2]
1 | His-CTD-PARN (C-terminal domain of PARN, aa 443-639) (domain or fragment, UniProt O95453 443-639) KRDHVLHVTFPKEWKTSDLYQLFSAFGNIQISWIDDTSAFVSLSQPEQVKIAVNTSKYAESYRIQTYAEYMGRKQEEKQIKRKWTEDSWKEADSKRLNPQCIPYTLQNHYYRNNSFTAPSTVGKRNLSPSQEEAGLEDGVSGEISDTELEQTDSCAEPLSEGRKKAKKLKRMKKELSPAGSISKNSPATLFEVPDTW |  | no binding
2 | His-NTD-PARN (N-terminal domain of PARN, aa 1-470) (domain or fragment, UniProt O95453 1-470) MEIIRSNFKSNLHKVYQAIEEADFFAIDGEFSGISDGPSVSALTNGFDTPEERYQKLKKHSMDFLLFQFGLCTFKYDYTDSKYITKSFNFYVFPKPFNRSSPDVKFVCQSSSIDFLASQGFDFNKVFRNGIPYLNQEEERQLREQYDEKRSQANGAGALSYVSPNTSKCPVTIPEDQKKFIDQVVEKIEDLLQSEENKNLDLEPCTGFQRKLIYQTLSWKYPKGIHVETLETEKKERYIVISKVDEEERKRREQQKHAKEQEELNDAVGFSRVIHAIANSGKLVIGHNMLLDVMHTVHQFYCPLPADLSEFKEMTTCVFPRLLDTKLMASTQPFKDIINNTSLAELEKRLKETPFNPPKVESAEGFPSYDTASEQLHEAGYDAYITGLCFISMANYLGSFLSPPKIHVSARSKLIEPFFNKLFLMRVMDIPYLNLEGPDLQPKRDHVLHVTFPKEWKTSDLYQLFSAFGN |  | binds

The next lines start with the values.

Row | binding [1] | binding [2] | Binder
3 | binds |  | Poly(A) specific ribonuclease (PARN), endogenous in nuclear extracts of HCT116 cells (enzyme, UniProt O95453 1-639) MEIIRSNFKSNLHKVYQAIEEADFFAIDGEFSGISDGPSVSALTNGFDTPEERYQKLKKHSMDFLLFQFGLCTFKYDYTDSKYITKSFNFYVFPKPFNRSSPDVKFVCQSSSIDFLASQGFDFNKVFRNGIPYLNQEEERQLREQYDEKRSQANGAGALSYVSPNTSKCPVTIPEDQKKFIDQVVEKIEDLLQSEENKNLDLEPCTGFQRKLIYQTLSWKYPKGIHVETLETEKKERYIVISKVDEEERKRREQQKHAKEQEELNDAVGFSRVIHAIANSGKLVIGHNMLLDVMHTVHQFYCPLPADLSEFKEMTTCVFPRLLDTKLMASTQPFKDIINNTSLAELEKRLKETPFNPPKVESAEGFPSYDTASEQLHEAGYDAYITGLCFISMANYLGSFLSPPKIHVSARSKLIEPFFNKLFLMRVMDIPYLNLEGPDLQPKRDHVLHVTFPKEWKTSDLYQLFSAFGNIQISWIDDTSAFVSLSQPEQVKIAVNTSKYAESYRIQTYAEYMGRKQEEKQIKRKWTEDSWKEADSKRLNPQCIPYTLQNHYYRNNSFTAPSTVGKRNLSPSQEEAGLEDGVSGEISDTELEQTDSCAEPLSEGRKKAKKLKRMKKELSPAGSISKNSPATLFEVPDTW
4 |  | binds | His-PARN (full-length recombinant PARN) (enzyme, UniProt O95453 1-639) MEIIRSNFKSNLHKVYQAIEEADFFAIDGEFSGISDGPSVSALTNGFDTPEERYQKLKKHSMDFLLFQFGLCTFKYDYTDSKYITKSFNFYVFPKPFNRSSPDVKFVCQSSSIDFLASQGFDFNKVFRNGIPYLNQEEERQLREQYDEKRSQANGAGALSYVSPNTSKCPVTIPEDQKKFIDQVVEKIEDLLQSEENKNLDLEPCTGFQRKLIYQTLSWKYPKGIHVETLETEKKERYIVISKVDEEERKRREQQKHAKEQEELNDAVGFSRVIHAIANSGKLVIGHNMLLDVMHTVHQFYCPLPADLSEFKEMTTCVFPRLLDTKLMASTQPFKDIINNTSLAELEKRLKETPFNPPKVESAEGFPSYDTASEQLHEAGYDAYITGLCFISMANYLGSFLSPPKIHVSARSKLIEPFFNKLFLMRVMDIPYLNLEGPDLQPKRDHVLHVTFPKEWKTSDLYQLFSAFGNIQISWIDDTSAFVSLSQPEQVKIAVNTSKYAESYRIQTYAEYMGRKQEEKQIKRKWTEDSWKEADSKRLNPQCIPYTLQNHYYRNNSFTAPSTVGKRNLSPSQEEAGLEDGVSGEISDTELEQTDSCAEPLSEGRKKAKKLKRMKKELSPAGSISKNSPATLFEVPDTW
